From article PMC7862700
This is a selection; strong and weak results do not stand in their true shares. At the low end of the ranking the order means little.

Assays:
Assay in all cases: DAPPL (digital affinity profiling via proximity ligation, sequencing)
Conditions in all cases: 10 mM Tris-HCl pH 7.5, 50 mM NaCl, 1 mM DTT, 4% glycerol, room temperature, 30 min; GST-TFs on glutathione beads, 16-mer random dsDNA library, 0.1% …; high values mean tight binding; double strand, one strand shown; scale: fold enrichment (6-mer frequency, TF over GST control)
[1] = biological target: T1, ELK1 (UniProt P19419)
T1 sequence: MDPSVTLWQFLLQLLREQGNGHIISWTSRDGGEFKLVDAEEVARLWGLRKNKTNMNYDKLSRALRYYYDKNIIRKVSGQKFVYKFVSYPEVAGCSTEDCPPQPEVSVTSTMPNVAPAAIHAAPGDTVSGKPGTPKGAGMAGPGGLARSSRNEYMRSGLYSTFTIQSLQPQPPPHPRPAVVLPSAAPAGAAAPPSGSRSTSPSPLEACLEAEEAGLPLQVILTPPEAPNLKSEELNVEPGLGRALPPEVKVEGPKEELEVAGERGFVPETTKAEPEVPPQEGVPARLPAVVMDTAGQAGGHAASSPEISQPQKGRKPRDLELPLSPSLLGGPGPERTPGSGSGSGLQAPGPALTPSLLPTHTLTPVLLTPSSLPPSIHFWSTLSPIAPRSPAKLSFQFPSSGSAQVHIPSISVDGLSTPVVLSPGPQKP

[2] = biological target: T2, ELK3 (UniProt P41970)
T2 sequence: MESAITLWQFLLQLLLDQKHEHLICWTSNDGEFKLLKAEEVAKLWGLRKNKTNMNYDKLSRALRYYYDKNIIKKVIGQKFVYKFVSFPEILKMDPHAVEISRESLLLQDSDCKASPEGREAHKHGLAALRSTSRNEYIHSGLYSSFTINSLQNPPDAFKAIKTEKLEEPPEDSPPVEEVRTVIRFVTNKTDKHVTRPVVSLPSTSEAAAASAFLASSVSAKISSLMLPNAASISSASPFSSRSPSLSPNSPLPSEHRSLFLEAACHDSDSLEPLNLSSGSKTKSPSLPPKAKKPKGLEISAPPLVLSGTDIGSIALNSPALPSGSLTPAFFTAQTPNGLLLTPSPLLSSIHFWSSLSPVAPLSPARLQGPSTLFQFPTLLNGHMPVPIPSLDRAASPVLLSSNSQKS

[3] = biological target: T3, SPIC (UniProt Q8N5J4)
T3 sequence: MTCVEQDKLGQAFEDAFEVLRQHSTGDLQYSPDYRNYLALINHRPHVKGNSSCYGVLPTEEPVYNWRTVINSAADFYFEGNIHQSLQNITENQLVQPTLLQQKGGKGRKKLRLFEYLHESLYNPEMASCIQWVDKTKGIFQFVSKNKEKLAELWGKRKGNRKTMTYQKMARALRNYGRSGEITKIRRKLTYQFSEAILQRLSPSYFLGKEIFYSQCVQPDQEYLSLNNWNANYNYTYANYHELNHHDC

[4] = biological target: T4, ETS2 (UniProt P15036)
T4 sequence: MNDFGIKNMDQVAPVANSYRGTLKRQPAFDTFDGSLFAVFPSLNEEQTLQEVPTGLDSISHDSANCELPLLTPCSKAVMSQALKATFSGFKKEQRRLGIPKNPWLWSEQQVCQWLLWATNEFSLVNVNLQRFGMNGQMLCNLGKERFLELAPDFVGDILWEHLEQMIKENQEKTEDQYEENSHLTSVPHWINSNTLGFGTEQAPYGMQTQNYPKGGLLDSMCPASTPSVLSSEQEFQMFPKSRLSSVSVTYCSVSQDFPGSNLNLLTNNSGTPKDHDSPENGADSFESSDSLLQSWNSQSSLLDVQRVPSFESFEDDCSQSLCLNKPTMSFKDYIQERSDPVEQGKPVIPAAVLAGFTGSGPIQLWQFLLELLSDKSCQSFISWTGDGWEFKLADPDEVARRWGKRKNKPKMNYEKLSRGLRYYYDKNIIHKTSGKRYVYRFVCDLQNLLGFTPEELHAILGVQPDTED

[5] = biological target: T5, ETV3 (UniProt P41162-2)
T5 sequence: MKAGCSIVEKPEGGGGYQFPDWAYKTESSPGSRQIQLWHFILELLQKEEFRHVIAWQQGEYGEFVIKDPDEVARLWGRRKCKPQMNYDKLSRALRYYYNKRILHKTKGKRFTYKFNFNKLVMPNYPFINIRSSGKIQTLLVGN

Row | Sequence | binding signal [1] | binding signal [2] | binding signal [3] | binding signal [4] | binding signal [5]
1 | AGCAAG | 0.895 | 0.894 | 0.831 | 0.932 | 0.871
2 | GAGCCA | 0.555 | 0.651 | 0.701 | 0.62 | 0.583
3 | GCAGGA | 0.792 | 0.802 | 0.745 | 0.894 | 0.768
4 | GTCGGC | 0.41 | 0.384 | 0.425 | 0.376 | 0.392
5 | GAGACA | 0.376 | 0.405 | 0.357 | 0.397 | 0.369
6 | GGGAAC | 0.755 | 0.666 | 0.802 | 0.692 | 0.68
7 | GAGATC | 0.456 | 0.425 | 0.433 | 0.442 | 0.446
8 | GGGTGC | 0.899 | 0.756 | 0.584 | 0.806 | 0.778
9 | AGACAC | 0.813 | 0.804 | 0.716 | 0.808 | 0.777
10 | ACGGTC | 0.764 | 0.762 | 0.745 | 0.792 | 0.679
11 | GGGGCA | 0.745 | 0.679 | 0.675 | 0.692 | 0.601
12 | GGGGTC | 0.628 | 0.694 | 0.654 | 0.684 | 0.634
13 | GTCGTG | 0.399 | 0.348 | 0.317 | 0.397 | 0.422
14 | CCAGGC | 0.439 | 0.449 | 0.438 | 0.447 | 0.439
15 | CGTCAG | 0.936 | 0.821 | 0.737 | 0.857 | 0.785
16 | GGTGAG | 0.384 | 0.38 | 0.362 | 0.383 | 0.361
17 | AGTCGA | 0.394 | 0.385 | 0.448 | 0.406 | 0.417

Random excerpt: two entries already listed, in no set order.
Row | Sequence | binding signal [1] | binding signal [2] | binding signal [3] | binding signal [4] | binding signal [5]
16 | GGTGAG | 0.384 | 0.38 | 0.362 | 0.383 | 0.361
14 | CCAGGC | 0.439 | 0.449 | 0.438 | 0.447 | 0.439

Continuation:

Row | Sequence | binding signal [1] | binding signal [2] | binding signal [3] | binding signal [4] | binding signal [5]
18 | CACGGT | 0.953 | 0.844 | 0.908 | 0.988 | 0.886
19 | AGGAGG | 0.21 | 0.245 | 0.24 | 0.227 | 0.227
20 | CCGGAG | 0.506 | 0.55 | 0.474 | 0.504 | 0.541
21 | GAGCCC | 0.644 | 0.787 | 0.76 | 0.708 | 0.765
22 | GAGGTG | 0.514 | 0.495 | 0.563 | 0.503 | 0.498
23 | AGAGGC | 0.676 | 0.697 | 0.906 | 0.729 | 0.662
24 | CAAGGA | 0.769 | 0.77 | 0.749 | 0.751 | 0.769
25 | CGTGAA | 0.427 | 0.467 | 0.455 | 0.447 | 0.468
26 | TTGGAG | 0.533 | 0.57 | 0.533 | 0.502 | 0.519
27 | CAGCCA | 0.849 | 0.843 | 0.784 | 0.831 | 0.834
28 | AGTGGA | 0.724 | 0.867 | 0.856 | 0.811 | 0.799
29 | GAGTCG | 0.222 | 0.221 | 0.234 | 0.231 | 0.221
30 | CCAGAG | 0.623 | 0.699 | 0.656 | 0.657 | 0.65
31 | CTAGAG | 0.811 | 0.926 | 0.87 | 0.852 | 0.814
32 | AGAGTA | 0.786 | 0.772 | 0.756 | 0.788 | 0.801
33 | GAGCAG | 0.599 | 0.687 | 0.593 | 0.633 | 0.588
